Values from PubChem BioAssay AID652243 (Drosophila RNAi Screening Center, 2013)
Screen: 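Knock-downs that decrease or increase androgen receptor reporter signal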 (primary screen). Cell system: Drosophila S2R+ cells. Reagents: long dsRNA against Drosophila genes. Timing: 72 h (48 h, then 24 h hormone). Challenge: synthetic androgen R1881 at 10 nM for 24 h. Detection: 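Per-well raw luminescence of the androgen-driven firefly reporter and of the Renilla control, two replicates each, without normalisation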. Scale: firefly reporter light: higher = more light from androgen-responsive reporter; Renilla control light: higher = more constitutive control signal (cell number, transfection). Rule for the call: 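Across duplicate plates, a knock-down whose log firefly/Renilla ratio shifted a set fold down or up from the GFP/LacZ control mean was a hit; the downward cut appears as both 1.5 and 3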. Meaning of the calls: active = hit: reporter lowered or raised; inactive = no hit.
The screen tested about 24,000 reagents; shown is a random part of those with a known target gene and a result. Of all reagents, 246 (1%) are marked active. 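Plates not normalised; calls are printed but the firefly/Renilla ratio behind them is not deposited; fold cut for lowering reported inconsistently.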 Raw values are not corrected between plates. Not stated in the record: the amount of reagent.

target	amplicon	firefly reporter light, replicate 1	firefly reporter light, replicate 2	Renilla control light, replicate 1	Renilla control light, replicate 2	call
CG13385	DRSC02259	2.03e5	1.63e5	1.87e6	1.63e6	inactive
CG13949	DRSC00367	5.00e5	5.77e5	1.48e6	1.85e6	inactive
CG13949	DRSC25702	8.20e5	8.73e5	1.05e6	9.37e5	inactive
CG15564	DRSC15102	2.26e5	2.50e5	2.18e6	2.92e6	inactive
CG6283	DRSC16009	1.51e5	2.74e5	1.92e6	2.53e6	inactive
CG6283	DRSC29913	6.26e5	7.77e5	1.22e6	1.26e6	inactive
Rhp (Rhophilin)	DRSC20279	6.05e5	4.58e5	4.56e6	3.09e6	inactive
RpS19a (Ribosomal protein S19a)	DRSC20281	4.05e5	4.09e5	2.19e6	2.02e6	inactive
CG32551	DRSC19259	5.90e5	7.18e5	4.01e5	3.62e5	inactive
MED30 (Mediator complex subunit 30)	DRSC23135	2.94e5	2.03e5	1.02e6	1.14e6	inactive
MED30 (Mediator complex subunit 30)	DRSC30026	9.69e5	6.58e5	1.12e6	1.30e6	inactive
Cpr66D (Cuticular protein 66D)	DRSC23178	5.44e5	5.33e5	1.47e6	1.33e6	inactive
Cpr66D (Cuticular protein 66D)	DRSC25925	3.20e5	3.96e5	6.63e5	6.10e5	inactive
tre-2 (retired record)	DRSC38632	6.86e5	4.76e5	1.74e6	1.21e6	inactive
CG34304 (retired record)	DRSC38821	9.54e5	8.19e5	2.00e6	1.64e6	inactive
CG13203	DRSC06327	2.62e5	2.32e5	1.91e6	1.76e6	inactive
CG13203	DRSC29202	3.80e5	3.02e5	6.39e5	9.13e5	inactive
CG11356	DRSC19401	3.69e5	3.78e5	2.42e6	2.44e6	inactive
CG34437	DRSC38641	8.25e5	7.32e5	1.63e6	1.38e6	inactive
Prdm13 (PR/SET domain 13)	DRSC09970	2.11e5	2.27e5	1.88e6	2.69e6	inactive
Hsf (Heat shock factor)	DRSC07443	1.06e6	7.45e5	1.21e6	1.06e6	inactive
Hsf (Heat shock factor)	DRSC27700	2.55e5	3.14e5	4.10e5	6.30e5	inactive
CG8298	DRSC07138	4.02e5	3.16e5	1.80e6	1.80e6	inactive
CG8298	DRSC36859					inactive
CG8298	DRSC36860					inactive
CG15531	DRSC15068	2.45e5	2.71e5	1.73e6	2.82e6	inactive
CG15531	DRSC24882	9.73e5	8.37e5	9.74e5	7.41e5	inactive
CG15531	DRSC39079	8.58e5	5.99e5	1.99e6	1.96e6	inactive
CG12288	DRSC02155	1.55e5	1.61e5	2.23e6	2.36e6	inactive
AMPdeam (AMP deaminase)	DRSC19366	39200	46894	3.85e5	2.27e5	inactive
AMPdeam (AMP deaminase)	DRSC19368	6.31e5	5.38e5	4.05e6	3.51e6	inactive
AMPdeam (AMP deaminase)	DRSC19727	4.98e5	6.86e5	3.99e6	4.41e6	inactive
CR33319 (pseudo)	DRSC01826	1.46e5	1.61e5	3.21e5	4.30e5	inactive
Kap-alpha1 (karyopherin alpha1)	DRSC11356	2.38e5	2.23e5	1.98e6	2.24e6	inactive

Only “Renilla control light, replicate 1” (3 entries from above):
CG6283 [DRSC16009]: 1.92e6
CG6283 [DRSC29913]: 1.22e6
Rhp (Rhophilin) [DRSC20279]: 4.56e6

Continued.
target	amplicon	firefly reporter light, replicate 1	firefly reporter light, replicate 2	Renilla control light, replicate 1	Renilla control light, replicate 2	call
CG31633	DRSC02275	1.91e5	1.17e5	2.05e6	1.58e6	inactive
CG31633	DRSC27022	4.31e5	3.93e5	7.05e5	3.54e5	inactive
CG7222	DRSC07019	8.01e5	1.07e6	1.88e6	2.22e6	inactive
PolD2 (DNA polymerase delta subunit 2)	DRSC08147	8.85e5	7.14e5	1.74e6	1.49e6	inactive
CG30065	DRSC05420	1.48e5	2.02e5	4.57e5	2.68e5	inactive
CG12493	DRSC08279	2.43e5	2.71e5	2.93e6	3.16e6	inactive
CG12493	DRSC25535	1.08e6	1.14e6	1.37e6	1.35e6	inactive
ng2 (new glue 2)	DRSC18803	3.39e5	3.85e5	2.23e6	2.27e6	inactive
hfw (halfway)	DRSC18506	3.06e5	2.47e5	3.58e6	3.24e6	inactive
hfw (halfway)	DRSC25958	7.99e5	6.96e5	1.18e6	1.09e6	inactive
link	DRSC06368	94868	90876	2.06e6	2.06e6	inactive
link	DRSC23511	1.30e6	1.04e6	2.18e6	1.80e6	inactive
link	DRSC39026	5.91e5	6.30e5	9.76e5	1.76e6	inactive
CG12519	DRSC29810	5.12e5	4.55e5	1.67e6	1.86e6	inactive
Pp4-19C (Protein phosphatase 19C)	DRSC20559	2.45e5	1.26e5	1.16e6	5.69e5	inactive
Pp4-19C (Protein phosphatase 19C)	DRSC21251	79126	80362	4.51e5	4.32e5	active
Pp4-19C (Protein phosphatase 19C)	DRSC23319	5.30e5	5.43e5	2.72e5	2.72e5	inactive
Pp4-19C (Protein phosphatase 19C)	DRSC26053	2.22e5	2.15e5	8.53e5	7.73e5	inactive
CG13058	DRSC09941	4.59e5	2.51e5	3.84e6	2.60e6	inactive
CG13058	DRSC27898	5.15e5	4.10e5	2.07e6	1.67e6	inactive
Taf1 (TBP-associated factor 1)	DRSC12607	1.54e5	1.46e5	1.94e6	1.95e6	inactive
Taf1 (TBP-associated factor 1)	DRSC29806	5.07e5	4.27e5	1.15e6	1.15e6	inactive
Taf1 (TBP-associated factor 1)	DRSC36664					inactive
Taf1 (TBP-associated factor 1)	DRSC36665					inactive
